Laboratory results: PubChem BioAssay AID504786 (Drosophila RNAi Screening Center, 2011)
The screen tested about 21,000 reagents; this is a random part of those that have a named target and a result. 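Primary screen; positive scores mean lost reporter signal, so the sign may be inverted from the usual convention.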 A plus sign joins genes that one reagent is predicted to hit.

Aim: 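Positive regulators of HIF-driven reporter output in Drosophila cells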 (primary screen)
Cells: Drosophila S2 cells with a stable HIF luciferase reporter
Reagents: long dsRNA against Drosophila genes, about 0.2 µg dsRNA per well of a 384-well plate
Timing: three days of knock-down, then 20 h of DFO before reading
Treatment: desferrioxamine (DFO) at 100 µM, an iron chelator that mimics hypoxia, for 20 h
Measurement: 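Firefly luciferase driven by the mouse ldh-a hypoxia-response element, measured after 20 h of 100 µM DFO; z-scores per plate, higher means more signal lost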
Reading the numbers: z-score: higher = stronger loss of HIF reporter signal

CG14301 [SID104194572] scored z-score, replicate 1 = -1.1; z-score, replicate 2 = 0.1. For Rbp1-like [SID104199620], the entry reads z-score, replicate 1 = -0.3; z-score, replicate 2 = -0.9. Silencing of Dpy-30L2 [SID104187997] gave: z-score, replicate 1 = -0.4; z-score, replicate 2 = -0.6. With knock-down of Nmdar2 [SID104197975], the screen gave z-score, replicate 1 = -0.4; z-score, replicate 2 = -0.4. Nmdar2 [SID104198303] scored z-score, replicate 1 = -0.3; z-score, replicate 2 = -0.7. Silencing of Nmdar2 [SID104198361] resulted in: z-score, replicate 1 = -0.3; z-score, replicate 2 = -0.4.

MICAL-like [SID104189621] showed z-score, replicate 1 = -0.4; z-score, replicate 2 = -0.2. Against CG9759 [SID104196350], the values are z-score, replicate 1 = -0.3; z-score, replicate 2 = -0.2. Knock-down of CG4829 [SID104199712] gave: z-score, replicate 1 = -0.3; z-score, replicate 2 = -0.1. Against CG11563 [SID104194119] the deposit lists z-score, replicate 1 = -0.3; z-score, replicate 2 = -0.2. After knock-down of mRpL2 [SID104190688] the results were z-score, replicate 1 = 0.9; z-score, replicate 2 = 1.1. After knock-down of Nxt1 [SID104184422], the screen gave z-score, replicate 1 = 1; z-score, replicate 2 = 2.4.

Knock-down of CG17327 [SID104195017] resulted in: z-score, replicate 1 = -0.1; z-score, replicate 2 = 0.4. Silencing of dpr10 [SID104188807] resulted in: z-score, replicate 1 = -0.3; z-score, replicate 2 = -0.1. dpr10 [SID104188810] scored z-score, replicate 1 = 0; z-score, replicate 2 = -0.9. For dpr10 [SID104189951], the entry reads z-score, replicate 1 = -0.2; z-score, replicate 2 = -0.2. Depletion of dpr10 [SID104189952] came out at: z-score, replicate 1 = -0.2; z-score, replicate 2 = -0.4. Against CG13744 [SID104186207], the values are z-score, replicate 1 = -0.4; z-score, replicate 2 = -0.6.

Against Cul2 [SID104183502], the values are z-score, replicate 1 = -0.1; z-score, replicate 2 = 0.4. Against tctn + B9d2 [SID104182952] the deposit lists z-score, replicate 1 = -0.3; z-score, replicate 2 = -0.2. Against CG4686 [SID104195414], the values are z-score, replicate 1 = -1.1; z-score, replicate 2 = -0.8. Against Nup93-1 [SID104199136], the values are z-score, replicate 1 = 0.5; z-score, replicate 2 = 1.4. CG15563 [SID104194893] gave z-score, replicate 1 = 0; z-score, replicate 2 = 0. Knock-down of CG14538 (retired record) [SID104182188] came out at: z-score, replicate 1 = -0.2; z-score, replicate 2 = -0.2.

With knock-down of veg (retired record) [SID104187506] the results were z-score, replicate 1 = -0.2; z-score, replicate 2 = -0.7. With knock-down of Spg7 [SID104198261], the screen gave z-score, replicate 1 = -0.3; z-score, replicate 2 = -0.4. Knock-down of Patronin [SID104186548] resulted in: z-score, replicate 1 = -0.2; z-score, replicate 2 = -0.4. With knock-down of Patronin [SID104186549] the results were z-score, replicate 1 = 0.2; z-score, replicate 2 = -0.1. With knock-down of Patronin [SID104186786], the screen gave z-score, replicate 1 = 0; z-score, replicate 2 = 0.1. With knock-down of CG11898 [SID104194224], the screen gave z-score, replicate 1 = -0.3; z-score, replicate 2 = -0.3.

For Nep6 [SID104199669], the entry reads z-score, replicate 1 = 0.8; z-score, replicate 2 = 0.8. After knock-down of CG13559 [SID104183989], the record shows z-score, replicate 1 = -0.3; z-score, replicate 2 = -0.4. Dpy-30L1 [SID104182751] scored z-score, replicate 1 = -0.3; z-score, replicate 2 = -0.5. Knock-down of CG12836 [SID104185974] gave: z-score, replicate 1 = -0.3; z-score, replicate 2 = -0.1. Silencing of COX7A [SID104196306] resulted in: z-score, replicate 1 = 2.4; z-score, replicate 2 = 2.3. Against glob2 [SID104192352], the values are z-score, replicate 1 = -0.3; z-score, replicate 2 = -0.2.

CG11598 [SID104194123] showed z-score, replicate 1 = -0.3; z-score, replicate 2 = -0.6. After knock-down of CG42307 + mus312 [SID104190800], the record shows z-score, replicate 1 = -0.3; z-score, replicate 2 = -0.4. Against CG10405 [SID104194030], the values are z-score, replicate 1 = -0.1; z-score, replicate 2 = -0.3. PGRP-SD [SID104190648] scored z-score, replicate 1 = -0.4; z-score, replicate 2 = -0.6. For THG [SID104181688] the deposit lists z-score, replicate 1 = -0.1; z-score, replicate 2 = -0.5. Knock-down of CG7220 [SID104185027] came out at: z-score, replicate 1 = -0.3; z-score, replicate 2 = -0.3.

Against CG7220 [SID104186810] the deposit lists z-score, replicate 1 = -0.4; z-score, replicate 2 = -0.2. Depletion of Kr-h1 [SID104180700] resulted in: z-score, replicate 1 = -0.1; z-score, replicate 2 = 0.5. With knock-down of Kr-h1 [SID104183147], the record shows z-score, replicate 1 = -0.1; z-score, replicate 2 = 0.1. Against Ctu1 [SID104186861], the values are z-score, replicate 1 = -0.3; z-score, replicate 2 = -0.3. CG5721 [SID104186737] showed z-score, replicate 1 = -0.2; z-score, replicate 2 = -0.6. After knock-down of CG9662 [SID104180515] the results were z-score, replicate 1 = -0.3; z-score, replicate 2 = 0.1.

RpL11 [SID104187329] scored z-score, replicate 1 = -0.3; z-score, replicate 2 = -0.5. With knock-down of amx [SID104198528] the results were z-score, replicate 1 = 0.4; z-score, replicate 2 = 1. For Rack1 [SID104183197], the values are z-score, replicate 1 = -0.5; z-score, replicate 2 = -0.9.
